Source: patent US9549941B2, “Compositions and methods for treating hepatitis C virus” (priority 2011, dated 2017)
At least one structure is not confirmed: it was looked up by name or label, or the drawing left a doubt.

Test system: HCV NS5B S282T
Experiment: GS-7977 resistance in Phase 2 clinical studies, population and deep sequencing of NS5B
Format: in vivo, human
Settings: Phase 2 clinical studies to date

## CC(C)OC(=O)[C@H](C)N[P@](=O)(OC[C@H]1O[C@@H](n2ccc(=O)[nH]c2=O)[C@](C)(F)[C@@H]1O)Oc1ccccc1 [GS-7977, (S)-isopropyl 2-(((S)-(((2R,3R,4R,5R)-5-(2,4-dioxo-3,4-dihydropyrimidin-1(2H)-yl)-4-fluoro-3-hydroxy-4-methyltetrahydrofuran-2-yl)methoxy)(phenoxy)phosphoryl)amino)propanoate]
  virologic breakthrough during treatment: no virologic breakthrough has been observed
